Measurements taken from US20060205636A1, “Oxytocin as cardiomyogenesis inducer and uses thereof” (priority 2002, published 2006).
At least one structure is not confirmed: it was looked up by name or label, or the drawing left a doubt. Some results were stated once for a whole list of compounds, not compound by compound.

What was measured:
P19 cells [1] = test: Rhodamine123 retention in P19 cultures; format: cell-based, mouse; conditions: day 10 of differentiation, p<0.001
ANP mRNA = test: RT-PCR analysis of ANP gene transcript in P19 cultures; format: cell-based, mouse; conditions: induced P19 cells
Experimental: Total cellular RNA was extracted with TRIzol® Reagent (Invitrogen Life Technologies, Burlington, Ontario, Canada), and poly(A)^+mRNA was affinity purified from 200 μg of total RNA onto Oligotex® mRNA columns (Qiagen, Mississauga, Ontario, Canada), as per the manufacturers' instructions. […] Invitrogen). First-strand cDNA (5 μl) was then used for PCR amplification with OTR, ANP or GAPDH exon-specific oligonucleotide primers in a Robocycler Gradient 40 thermocycler (Stratagene, La Jolla, Calif.). Sequences of mouse OTR and ANP genes have been described (26, 34). Conditions for RT-PCR analysis of mouse OTR were adapted from Wagner et al. (6, 7). For all PCR studies the number of cycles used was within the linear range of amplification. The OTR sense and antisense primers were respectively the 22-bp [NT] ID NO:9) and the 23-bp [NT] ID NO:10). […] The ANP antisense and sense primers were respectively the 24-bp [NT] ID NO:11) and the 20-bp [NT] ID NO:12). […] The amplification of GAPDH mRNA, a constitutively and ubiquitously expressed gene, served as an internal standard for RT-PCR analysis. The 23-bp antisense primer [NT] ID NO:13) and the 23-bp sense primer [NT] ID NO:14) were used.

P19 cells [2] = test: Cardiac differentiation of P19 cell aggregates, scored by beating cell colonies; format: cell-based, mouse; conditions: RA 10^−7 M
Source text: P19 cells were propagated and differentiated according to the procedures of Rudnicki and McBurney (28), with minor modifications. Undifferentiated cells were propagated in complete medium containing α-modified Eagle's minimal essential medium (α-MEM; GIBCO-BRL Burlington, Ontario, Canada) supplemented with 2.5% heat-inactivated fetal bovine serum, 7.5% heat-inactivated donor bovine serum (Cansera International, Rexdale, Ontario, Canada), and the antibiotics (GIBCO-BRL) penicillin G (50 U/ml) and streptomycin (50 μg/ml). The cultures were maintained at 37° C. in a humidified atmosphere of 5% CO2 and passaged every 2 days. The general protocol used for differentiation of P19 cells is depicted in FIG. 1.
Briefly, 0.25×10^6 cells were allowed to aggregate for 4 days in non-adhesive bacteriological grade petri dishes (6-cm diameter) containing 5 ml complete medium, in the presence of 0.5% (v/v) DMSO (Sigma Chemical Co., St. Louis, Mo.). […] The cell populations were analyzed at days 10-14 of the entire differentiation protocol, at a time cardiac cells normally beat synchronously.
P19 cells were subjected to the cardiac differentiation protocol depicted in Example 1, except that different concentrations of OT were used during the four days of aggregation. At day 4, aggregates were transferred to 24-well plates and scored for the appearance of beating cell colonies. […]

OTR = OTR expression in P19 cells (immunocytochemistry, Western blot, RT-PCR); format: cell-based, mouse; conditions: RA 10^−7 M, day 14
Experimental: For immunocytofluorescence studies, cells were grown onto glass coverslips coated with 0.1% gelatin. They were then fixed by 20-min incubation in PBS containing 4% paraformaldehyde, rinsed in PBS and stored at 4° C. in this buffer until used. All subsequent steps of permeabilization, washing and incubation with antibodies were performed at room temperature. Fixed cells were permeabilized for 10 min in PBS containing 0.005% saponin, blocked for 60 min in PBS-BSA-saponin (PBS containing 1% bovine serum albumin and 0.005% saponin), incubated for 45 min with the primary antibody diluted 1/50 and for 45 min with a fluorescein-conjugated swine anti-goat IgG antibody (Biosource International, Camarillo, Calif.) diluted 1/1000. PBS-BSA-saponin was used for washing between incubations and antibodies were diluted in the same buffer but containing 1.5% normal swine serum (Jackson Immuno Research Laboratories Inc., West Grove, Pa.). Coverslips were mounted in PBS containing 50% glycerol, and immediately examined under the microscope. The primary antibodies were all from Santa Cruz Biotechnology, Inc. (Santa Cruz, Calif.) and produced in goat: antibody C-20 against OT receptor (OTR), antibody K-16 against sarcomeric myosin heavy chain (MHC), and antibody N-19 against dihydropyridine receptor-alphal (DHPR-alphal). […]

P19 cells [3] = conditions: RA 10^−8-10^−9 M; cited from earlier work
P19 cells [4] = conditions: 10^−6 M RA; cited from earlier work
fetal heart = conditions: reference 26; cited from earlier work

Row | SMILES | increase of cellular retention of rhodamine123 compared to non-induced aggregates (P19 cells [1]) | ANP transcript level relative to adult mouse atrium (ANP mRNA) | differentiation into cardiomyocytes (rhythmically beating cells) (P19 cells [2]) | OTR expression after RA (OTR) | cardiac differentiation at low RA levels (P19 cells [3]) | efficiency of differentiation to neurons (P19 cells [4]) [%] | OT expression in the fetal heart (fetal heart)
1 | C[S+](C)[O-] [DMSO] | 2-3 fold | 5-10% |  |  |  |  | 
2 | CC1=C(/C=C/C(C)=C/C=C/C(C)=C/C(=O)O)C(C)(C)CCC1 [RA, retinoic acid] |  |  | stimulated P19 cell differentiation into cardiomyocytes | OTR upregulation | induces cardiac differentiation of P19 cells | ≥ 95 | upregulate OT expression in the fetal heart
